The text below walks through data of PubChem BioAssay AID2685 (National Center for Advancing Translational Sciences (NCATS), 2010).

The assay can be described thus: qHTS Assay for Lipid Storage Modulators in Drosophila S3 Cells.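 As to cell number change: cells counted by Cell Tracker Red CMTPX staining in the red channel.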 As to conditions: BODIPY lipid droplet fluorescence, 18-24 h; for cell number change: measured here: cell count max response, cells fed with added oleic acid. In a few lines:
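Drosophila S3 cells got compounds at several concentrations plus oleic acid (400 uM solution). Laser-scanning cytometry with 488 nm excitation read lipid droplets at 500-530 nm and cells at 575-640 nm. Percent activity was relative to 20 uM Triacsin C.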
(qHTS replaces the single test concentration by a dilution series.)

Where [1] appears, read: measured here: cell number channel AC50, cells fed with added oleic acid.
[2] abbreviates: measured here: lipid fluorescence (Fed channel) AC50, cells fed with added oleic acid.

Some of the results follow. Further columns of the screen follow, without active or inactive calls. Compounds called inactive in the main read-out are mostly missing here. Words in brackets tell the shape of the fitted curve; partial curves, single points and poor fits give uncertain potencies.

For orientation: AC50 means the concentration giving half of the maximal activity seen. Consider `O=C(CSc1ncn[nH]1)NC1CCCc2ccccc21` (stereo not drawn), for which the AC50 under setting [1] is 0.058 µM [rising, full curve, poor fit].
In the case of `C=CCn1c(NCc2ccc(OC)cc2O)nc2ccccc21`, the cell number change was determined as 12.7%. In addition, the AC50 under setting [2] is 0.731 µM [rising, full curve, poor fit].
Regarding `COc1cc(CCC(=O)OCC(=O)N(CC(C)C)C2CCS(=O)(=O)C2)cc(OC)c1OC` (stereo not drawn), the cell number change was 50.8%. The AC50 under setting [1] is 29.1 µM [rising, single point]. Moreover, the AC50 under setting [2] was 32.6 µM [falling, single point].
Take `COC(=O)C1=C(C)Nc2ncnn2C1c1ccc(OC(=O)c2ccccc2)cc1` (stereo not drawn): the cell number change is -29%. In addition, the AC50 under setting [1] is 1.3 µM [falling, full curve, poor fit]. The AC50 under setting [2] is 0.0259 µM [falling, full curve, poor fit].
Regarding `CCN(CC)CCCNC(=O)Cc1c(C(=O)O)n(C)c2ccccc12`, the cell number change stood at 1.9%. The AC50 under setting [2] is 2.91 µM [falling, single point].
As for `O=C(O)CC1S/C(=N/N=C/c2ccc(-c3ccccc3[N+](=O)[O-])o2)NC1=O` (stereo not drawn), the cell number change stood at 14.2%. Further, the AC50 under setting [2] is 16.4 µM [rising, single point].
As to `Cc1ccc(-c2csc3ncnc(N4CCN(C(=O)c5ccco5)CC4)c23)cc1`, the cell number change amounted to 2.81%. In addition, the AC50 under setting [2] is 2.06 µM [rising, partial curve, poor fit].
Turning to `Cc1cc(C(=O)CN2C(=O)NC3(CCCc4ccccc43)C2=O)c(C)n1Cc1ccco1` (stereo not drawn), the cell number change is -13.5%. Under setting [2], the AC50 is 16.4 µM [rising, single point].
On to `CC1(C)CC(=O)C/C(=N\NC(=O)c2cccs2)C1`, for which the cell number change is -6.58%. Moreover, the concentration at half-maximal activity (AC50) under setting [2] is 0.651 µM [falling, full curve].
For `CCOc1ccc(/C(O)=C2/C(=O)C(=O)N(CCOCCO)C2c2cccnc2)cc1` (stereo not drawn), the cell number change is -1.61%. Besides, the AC50 under setting [2] is 4.11 µM [falling, single point].
With `Cc1ccc(C)c(N2CCN(c3ncnc4c3cnn4-c3ccccc3)CC2)c1`, the cell number change came to 50.5%. In addition, the AC50 under setting [1] was 20.6 µM [rising, single point].
As for `CCNC(=S)Nc1cccc(F)c1C`, the cell number change is -0.352%.
As for `COc1cccc(CN(C(=O)CN2C(=O)c3ccccc3S2(=O)=O)C(C(=O)NCC2CCCO2)c2ccco2)c1` (stereo not drawn), the cell number change amounted to 14.1%. Besides, under setting [2], the AC50 is 0.0058 µM [rising, full curve, poor fit].
Take `CCC1CCCCN1C(=O)COc1ccc2c(c1)OCO2` (stereo not drawn): the cell number change is 6.94%. Moreover, under setting [2], the AC50 is 23.1 µM [falling, single point].
Consider `COC(=O)c1[nH]c2cccc(OC)c2c1NC(=O)CCN1CCN(c2ccccc2F)CC1`, for which the cell number change turned out to be 27.4%.
As to `COC(=O)c1ccccc1NC(=O)c1noc2c1CCCC2`, the cell number change is 41.1%. The AC50 under setting [1] was 2.06 µM [rising, partial curve]. The AC50 under setting [2] is 6.51 µM [rising, single point].
With `Cc1ccc(CNC(=O)c2ccccc2N(C)S(C)(=O)=O)cc1`, the cell number change amounted to 171%. Further, the AC50 under setting [1] is 29.1 µM [rising, partial curve]. The AC50 under setting [2] was 29.1 µM [rising, partial curve].
Take `Cc1ccc(NC(=O)CN2CCN(C)CC2)cc1Br`: the cell number change stood at 3.16%. For the same compound, the AC50 under setting [2] is 18.4 µM [rising, single point].
As to `COc1cccc(-c2nc(CS(=O)CC(=O)NCc3ccccc3)c(C)o2)c1` (stereo not drawn), the cell number change is 9.59%. Also, the AC50 under setting [1] is 6.51 µM [rising, single point].
Regarding `CCOC(=O)c1ccc(NC(=O)CSc2nnc(CNC(=O)c3ccccc3F)o2)cc1`, the cell number change is 35.2%. In addition, the half-maximal activity concentration (AC50) under setting [1] is 1.03 µM [rising, full curve]. In addition, under setting [2], the half-maximal activity concentration (AC50) was 0.731 µM [rising, single point].
`c1ccc2sc(C3CCN(Cc4nnnn4Cc4ccc5c(c4)OCO5)CC3)nc2c1`: the cell number change is -33.4%. Further, the AC50 under setting [1] was 18.4 µM [falling, single point]. In addition, the AC50 under setting [2] is 29.1 µM [falling, single point].
`COc1ccc(NC(=O)Nc2ccc(C(=O)N3CCOCC3)cc2)cc1`: the cell number change was determined as 131%. Under setting [1], the AC50 was 13 µM [rising, partial curve]. Moreover, the AC50 under setting [2] was 20.6 µM [rising, single point].
For `CSCCC(NC(N)=O)C(=O)NCc1ccccc1Cl` (stereo not drawn), the cell number change came to 21.2%.
Consider `O=S(=O)(c1ccccc1)c1nc(-c2ccco2)oc1NCc1ccccc1`, for which the AC50 is, setting by setting: under setting [1], 2.06 µM [rising, partial curve]; under setting [2], 2.59 µM [rising, partial curve].
`Cc1ccc(C)c(CN2CCC(CNC(=O)Nc3ccc(Cl)cc3)CC2)c1`: the cell number change is -45.7%. For the same compound, under setting [1], the AC50 is 23.1 µM [falling, single point]. For the same compound, under setting [2], the AC50 was 29.1 µM [falling, single point].
As to `Cc1ccc(CNC(=O)CCC2CCCN(Cc3ccc4cccc(F)c4n3)C2)o1` (stereo not drawn), the cell number change was found to be 22.8%. Besides, the AC50 under setting [2] is 3.26 µM [rising, full curve].
Consider `COc1cc(C(=S)N2CCOCC2)ccc1OS(=O)(=O)c1ccc(Cl)cc1`, for which the cell number change was 14.5%.
Turning to `COc1ccccc1/C=C/C=N/NC(=O)c1cccs1`, the cell number change turned out to be 36.2%. Also, under setting [1], the AC50 is 29.1 µM [rising, single point]. The AC50 under setting [2] is 29.1 µM [rising, single point].
Consider `COc1ccc(S(=O)(=O)Nc2ccccc2OC)cc1NC(=O)Cc1cccs1`, for which the cell number change was 29.7%. The AC50 under setting [2] is 2.59 µM [rising, single point].
Consider `Cc1ccc(S(=O)(=O)NC2(C(=O)O)CCCCC2)cc1`, for which the cell number change was -41.3%. Besides, the AC50 under setting [1] is 0.0366 µM [falling, full curve, poor fit]. Besides, the AC50 under setting [2] is 0.82 µM [falling, full curve].
Take `COc1ccc(O)c(/C=c2/sc3nc4cc(C)c(C)cc4n3c2=O)c1`: the cell number change was -13.1%. The AC50 under setting [2] was 0.58 µM [rising, full curve, poor fit].
Take `CCOC(=O)Cc1csc(NC(NC(=O)CC)(C(F)(F)F)C(F)(F)F)n1`: the cell number change is 5.17%. Moreover, under setting [2], the AC50 is 0.731 µM [falling, single point].
In the case of `O=S(=O)(c1ccc(S(=O)(=O)N2CCCC2)cc1)N1CCCCC1`, the cell number change is -1.28%. Also, under setting [2], the AC50 was 0.116 µM [falling, full curve, poor fit].
In the case of `C=CCN1C(=O)C(O)(CC(=O)c2ccc(Cl)cc2)c2ccccc21` (stereo not drawn), the cell number change is -9.37%. Under setting [2], the AC50 is 0.00461 µM [falling, full curve, poor fit].
Take `COc1cc(C(=O)Nc2ccc3c(c2)ncn3C(C)(C)C)cc(OC)c1OC`: the cell number change is -4.21%. Further, the AC50 under setting [2] was 29.1 µM [rising, single point].
For `CCOc1cc(/C=C(\CC(=O)O)c2nc3ccccc3s2)ccc1OC`, the cell number change was -95.1%. The concentration at half-maximal activity (AC50) under setting [1] was 29.1 µM [falling, single point]. Besides, the AC50 under setting [2] was 18.4 µM [falling, partial curve].
